These are yes or no findings as the source states them, for the method shown. Some results given as binding are weak or reduced against the parent protein; the word gives no strength.
Target: wild-type plexin-A2 expressed in COS7 cells (mouse) (UniProt P70207)
Test: AP-fusion binding assay on transfected COS7 cells

Protein sequences, listed by entry. Tags and fused reporters are not part of them. Residues count along the entry.
UniProt P70207, residues 35-1894: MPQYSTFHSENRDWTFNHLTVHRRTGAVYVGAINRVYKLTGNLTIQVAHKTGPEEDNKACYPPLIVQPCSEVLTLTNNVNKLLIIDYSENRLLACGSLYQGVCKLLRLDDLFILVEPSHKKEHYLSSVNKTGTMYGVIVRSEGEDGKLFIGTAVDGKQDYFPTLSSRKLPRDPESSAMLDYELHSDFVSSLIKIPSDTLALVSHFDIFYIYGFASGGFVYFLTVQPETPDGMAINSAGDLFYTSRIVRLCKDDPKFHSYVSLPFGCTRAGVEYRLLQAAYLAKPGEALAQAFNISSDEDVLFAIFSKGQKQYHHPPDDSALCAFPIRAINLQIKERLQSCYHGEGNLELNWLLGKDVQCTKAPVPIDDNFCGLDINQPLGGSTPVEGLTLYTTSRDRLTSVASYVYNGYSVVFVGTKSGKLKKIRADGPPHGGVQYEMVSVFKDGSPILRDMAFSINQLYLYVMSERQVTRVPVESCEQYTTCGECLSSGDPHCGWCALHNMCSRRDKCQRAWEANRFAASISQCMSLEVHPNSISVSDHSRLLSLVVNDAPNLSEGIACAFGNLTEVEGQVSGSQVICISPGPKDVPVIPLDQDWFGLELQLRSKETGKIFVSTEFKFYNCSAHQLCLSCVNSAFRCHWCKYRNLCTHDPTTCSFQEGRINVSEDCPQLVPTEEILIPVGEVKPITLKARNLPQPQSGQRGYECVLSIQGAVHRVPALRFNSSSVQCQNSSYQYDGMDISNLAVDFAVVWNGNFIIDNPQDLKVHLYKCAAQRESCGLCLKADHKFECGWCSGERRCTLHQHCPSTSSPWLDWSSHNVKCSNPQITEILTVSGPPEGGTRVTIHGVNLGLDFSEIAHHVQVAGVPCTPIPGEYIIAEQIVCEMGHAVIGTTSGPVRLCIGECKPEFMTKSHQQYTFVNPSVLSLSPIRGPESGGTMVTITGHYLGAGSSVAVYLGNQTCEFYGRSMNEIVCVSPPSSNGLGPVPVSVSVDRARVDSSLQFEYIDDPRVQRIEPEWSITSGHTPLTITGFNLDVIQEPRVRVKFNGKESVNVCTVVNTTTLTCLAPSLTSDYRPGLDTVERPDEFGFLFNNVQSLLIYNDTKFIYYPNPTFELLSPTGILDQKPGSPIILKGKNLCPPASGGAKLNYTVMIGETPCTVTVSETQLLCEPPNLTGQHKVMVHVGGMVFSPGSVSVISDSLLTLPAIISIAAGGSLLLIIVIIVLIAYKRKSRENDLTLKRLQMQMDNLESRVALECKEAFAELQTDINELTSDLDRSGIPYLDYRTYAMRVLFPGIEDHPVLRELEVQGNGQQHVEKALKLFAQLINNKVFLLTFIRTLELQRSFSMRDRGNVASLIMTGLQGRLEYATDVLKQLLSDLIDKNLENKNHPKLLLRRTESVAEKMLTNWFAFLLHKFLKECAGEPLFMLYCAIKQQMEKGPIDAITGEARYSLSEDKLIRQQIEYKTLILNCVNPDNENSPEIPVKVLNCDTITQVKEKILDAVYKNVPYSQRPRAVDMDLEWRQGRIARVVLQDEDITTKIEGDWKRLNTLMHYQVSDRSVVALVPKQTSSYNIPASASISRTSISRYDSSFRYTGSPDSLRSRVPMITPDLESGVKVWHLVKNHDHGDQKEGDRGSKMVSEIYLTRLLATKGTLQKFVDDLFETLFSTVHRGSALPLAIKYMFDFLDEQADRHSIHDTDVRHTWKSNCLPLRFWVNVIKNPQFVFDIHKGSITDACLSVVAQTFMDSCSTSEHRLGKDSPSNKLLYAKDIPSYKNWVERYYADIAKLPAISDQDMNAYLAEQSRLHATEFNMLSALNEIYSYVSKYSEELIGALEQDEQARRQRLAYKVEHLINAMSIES

B1: Sema6A-AP (ligand, UniProt O35464 19-649, looked up)
chain: GFPEDSEPISISHGNYTKQYPVFVGHKPGRNTTQRHRLDIQMIMIMNRTLYVAARDHIYTVDIDTSHTEEIYCSKKLTWKSRQADVDTCRMKGKHKDECHNFIKVLLKKNDDTLFVCGTNAFNPSCRNYRVDTLETFGDEFSGMARCPYDAKHANIALFADGKLYSATVTDFLAIDAVIYRSLGDSPTLRTVKHDSKWLKEPYFVQAVDYGDYIYFFFREIAVEYNTMGKVVFPRVAQVCKNDMGGSQRVLEKQWTSFLKARLNCSVPGDSHFYFNILQAVTDVIRINGRDVVLATFSTPYNSIPGSAVCAYDMLDIANVFTGRFKEQKSPDSTWTPVPDERVPKPRPGCCAGSSSLEKYATSNEFPDDTLNFIKTHPLMDEAVPSIINRPWFLRTMVRYRLTKIAVDNAAGPYQNHTVVFLGSEKGIILKFLARIGSSGFLNGSLFLEEMNVYNPEKCSYDGVEDKRIMGMQLDRASGSLYVAFSTCVIKVPLGRCERHGKCKKTCIASRDPYCGWVRESGSCAHLSPLSRLTFEQDIERGNTDGLGDCHNSFVALNGHASSLYPSTTTSDSASRDGYESRGGMLDWNDLLEAPGSTDPLGAVSSHNHQDKKGVIRESYLKSNDQLVPVT
notes: Printed only as 'Sema6A-AP'; Order of the pieces follows the printed label only; not shown: alkaline phosphatase (AP) tag
  binding: binds

Reference: patent publication US20100189713A1 (Biogen, published 2010)
